Assay results as given in publication doi:10.1101/2020.09.06.285171.
No constants are given. Whether binding was seen depends on the method and setting. For part of these data: Sequences can lack the tags named with a protein.

Chains of the proteins cited; added tags and fusions are not shown. Residues count along the entry.
UniProt P79114, residues 1-935: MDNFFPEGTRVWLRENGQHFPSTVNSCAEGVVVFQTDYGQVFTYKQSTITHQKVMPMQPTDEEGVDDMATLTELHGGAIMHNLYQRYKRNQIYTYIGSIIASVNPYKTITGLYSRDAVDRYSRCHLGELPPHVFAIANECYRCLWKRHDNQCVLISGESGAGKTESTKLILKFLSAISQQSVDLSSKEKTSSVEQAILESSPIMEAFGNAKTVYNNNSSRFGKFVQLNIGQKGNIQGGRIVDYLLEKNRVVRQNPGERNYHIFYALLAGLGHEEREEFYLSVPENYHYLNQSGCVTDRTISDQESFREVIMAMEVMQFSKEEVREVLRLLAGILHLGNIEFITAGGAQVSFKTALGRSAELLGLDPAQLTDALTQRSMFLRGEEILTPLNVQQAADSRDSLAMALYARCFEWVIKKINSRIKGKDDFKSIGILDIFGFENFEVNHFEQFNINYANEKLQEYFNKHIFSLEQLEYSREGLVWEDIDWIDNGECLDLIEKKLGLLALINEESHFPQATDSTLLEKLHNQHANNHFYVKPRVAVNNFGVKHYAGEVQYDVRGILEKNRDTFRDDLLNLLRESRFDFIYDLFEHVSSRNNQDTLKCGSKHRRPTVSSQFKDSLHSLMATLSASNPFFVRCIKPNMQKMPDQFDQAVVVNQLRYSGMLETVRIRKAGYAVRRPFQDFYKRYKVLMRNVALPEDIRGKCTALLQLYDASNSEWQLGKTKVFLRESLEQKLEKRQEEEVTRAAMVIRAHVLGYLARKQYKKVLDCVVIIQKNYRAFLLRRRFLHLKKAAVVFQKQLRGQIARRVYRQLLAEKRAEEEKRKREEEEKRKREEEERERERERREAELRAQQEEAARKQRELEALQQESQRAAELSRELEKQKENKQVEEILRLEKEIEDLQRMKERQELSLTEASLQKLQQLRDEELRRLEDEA

Experiments:
[1] = target: EGFP-MYO10MD (Bos taurus (Bt)) (UniProt P79114); assay: in-cell filopodial tip enrichment assay with a chimeric myosin
[2] = target: mCherry-MYO10MD (Bos taurus (Bt)) (UniProt P79114); assay: as above

B1: mCherry-ANKS4B (ankyrin repeat and sterile a motif domain containing 4B) (protein, UniProt Q8N8V4 1-417)
chain: MSTRYHQAASDSYLELLKEATKRDLNLSDEDGMTPTLLAAYHGNLEALEIICSRGGDPDRCDIWGNTPLHFAASNGHAHCVSFLVNFGANIFALDNDLQTPLDAAASREQNECVALLDKAATAQNIMNPKKVTRLKEQAQKNARRQIKECERLQEKHQNKMAHTYSKEESGTLSSSKGTFSRSSPSNASAPGTFGSLSKGIKDTFKIKFKKNKDTAEQVGKEGRSGQRNVMEVFREEEEDSFSGDFKEKLQLSAEEDGSVHHESILNRPGLGSIVFRRNRISSPEDISDSKREFGFKLPSELLQRQGASEADEGAADEEGEENGLKDDLPWDDDEVEWEEDVVDATPLEVFLLSQHLEEFLPIFKREQIDLEALLLCSDEDLQSIQMQLGPRKKVLNAINRRKQVLQQPGQLVDTSL
B1 was tested. Which binding [1] did it give?
The binding was “no binding”.

B2: mCherry-USH1C (harmonin/Usher syndrome 1C) (protein, UniProt Q9Y6N9 1-552)
chain: MDRKVAREFRHKVDFLIENDAEKDYLYDVLRMYHQTMDVAVLVGDLKLVINEPSRLPLFDAIRPLIPLKHQVEYDQLTPRRSRKLKEVRLDRLHPEGLGLSVRGGLEFGCGLFISHLIKGGQADSVGLQVGDEIVRINGYSISSCTHEEVINLIRTKKTVSIKVRHIGLIPVKSSPDEPLTWQYVDQFVSESGGVRGSLGSPGNRENKEKKVFISLVGSRGLGCSISSGPIQKPGIFISHVKPGSLSAEVGLEIGDQIVEVNGVDFSNLDHKEAVNVLKSSRSLTISIVAAAGRELFMTDRERLAEARQRELQRQELLMQKRLAMESNKILQEQQEMERQRRKEIAQKAAEENERYRKEMEQIVEEEEKFKKQWEEDWGSKEQLLLPKTITAEVHPVPLRKPKYDQGVEPELEPADDLDGGTEEQGEQDFRKYEEGFDPYSMFTPEQIMGKDVRLLRIKKEGSLDLALEGGVDSPIGKVVVSAVYERGAAERHGGIVKGDEIMAINGKIVTDYTLAEAEAALQKAWNQGGDWIDLVVAVCPPKEYDDELTFF
With B2 as the binder, how does the binding [1] read?
The binding was “no binding”.

B3: CDHR2-EGFP (protein, UniProt Q9BYE9 21-1310)
chain: NVAPKFLANMTSVILPEDLPVGAQAFWLVAEDQDNDPLTYGMSGPNAYFFAVTPKTGEVKLASALDYETLYTFKVTISVSDPYIQVQREMLVIVEDRNDNAPVFQNTAFSTSINETLPVGSVVFSVLAVDKDMGSAGMVVYSIEKVIPSTGDSEHLFRILANGSIVLNGSLSYNNKSAFYQLELKACDLGGMYHNTFTIQCSLPVFLSISVVDQPDLDPQFVREFYSASVAEDAAKGTSVLTVEAVDGDKGINDPVIYSISYSTRPGWFDIGADGVIRVNGSLDREQLLEADEEVQLQVTATETHLNIYGQEAKVSIWVTVRVMDVNDHKPEFYNCSLPACTFTPEEAQVNFTGYVDEHASPRIPIDDLTMVVYDPDKGSNGTFLLSLGGPDAEAFSVSPERAVGSASVQVLVRVSALVDYERQTAMAVQVVATDSVSQNFSVAMVTIHLRDINDHRPTFPQSLYVLTVPEHSATGSVVTDSIHATDPDTGAWGQITYSLLPGNGADLFQVDPVSGTVTVRNGELLDRESQAVYYLTLQATDGGNLSSSTTLQIHLLDINDNAPVVSGSYNIFVQEEEGNVSVTIQAHDNDEPGTNNSRLLFNLLPGPYSHNFSLDPDTGLLRNLGPLDREAIDPALEGRIVLTVLVSDCGEPVLGTKVNVTITVEDINDNLPIFNQSSYNFTVKEEDPGVLVGVVKAWDADQTEANNRISFSLSGSGANYFMIRGLVLGAGWAEGYLRLPPDVSLDYETQPVFNLTVSAENPDPQGGETIVDVCVNVKDVNDNPPTLDVASLRGIRVAENGSQHGQVAVVVASDVDTSAQLEIQLVNILCTKAGVDVGSLCWGWFSVAANGSVYINQSKAIDYEACDLVTLVVRACDLATDPGFQAYSNNGSLLITIEDVNDNAPYFLPENKTFVIIPELVLPNREVASVRARDDDSGNNGVILFSILRVDFISKDGATIPFQGVFSIFTSSEADVFAGSIQPVTSLDSTLQGTYQVTVQARDRPSLGPFLEATTTLNLFTVDQSYRSRLQFSTPKEEVGANRQAINAALTQATRTTVYIVDIQDIDSAARARPHSYLDAYFVFPNGSALTLDELSVMIRNDQDSLTQLLQLGLVVLGSQESQESDLSKQLISVIIGLGVALLLVLVIMTMAFVCVRKSYNRKLQAMKAAKEARKTAAGVMPSAPAIPGTNMYNTERANPMLNLPNKDLGLEYLSPSNDLDSVSVNSLDDNSVDVDKNSQEIKEHRPPHTPPEPDPEPLSVVLLGRQAGASGQLEGPSYTNAGLDTTDL
B3 was tested. Which binding [2] did it give?
The binding was “no binding”.
